The whole screen tested about 53,000 sequences, of which about 3,700 (7%) were called active.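 How the source made its calls: active means gene knockdowns whose robust z-score for IL-1 alpha signal is at least 2 or at most -2, so actives lie on both sides; inactive means the rest.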 The list shows a part of the results.
Experiment: Components of the Cytosolic LPS Sensing Pathway: Gene Identification via Genome-wide siRNA Screen;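 further: robust z of the log signal after scaling to non-targeting control siRNA wells of the plate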
Conditions: RAW264.7 macrophages, IL-1a HTRF, actives lie on both sides, screened at 100 nM (by protocol), cells primed 5 h with Pam3CSK4 first
Outline: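 RAW264.7 mouse macrophages reverse-transfected with single siRNAs (100 nM final) for 48h, primed with Pam3CSK4 for 5 hours, then transfected with LipidA for 24 hour. Supernatant IL-1a read by HTRF; values normalized to negative-control median, log-transformed robust z-scores.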

Sequence	z-score
GGUAAGAACUGAAAUGCAUTT against Irf4	inactive: -0.108
GGGAUUCCACGGAUACUGUTT against Rnase13	inactive: -0.858
GGGAAUGCAGCUAGGAAGATT against Paics	inactive: 1.41
CCAGUCACAUGAUCUUCGATT against Car10	inactive: -0.892
GCUUGUGGCCAUAGCAGUUTT against Tmx3	inactive: -1.36
CCUCUACAUCCAGGAAUGATT against Map4k1	inactive: -0.546
GGUUUACGCAGACUCAAGUTT against Trim14	inactive: -0.183
GGUAUGCCGCUAUCUGUCATT against Olfr99	inactive: -0.86
GCCAGUGGAAAAUUGACGUTT against Baz2b	inactive: 1.49
GGAUUCUGAAUAUUUGCCATT against Glipr2	inactive: 0.378
GCCGUUAAGUACUUAUAAATT against Agpat5	inactive: 0.437
GGACCUCCAGAGCAUACUGTT against Plscr2	inactive: 1.55
GGGCCACUGUGUAAUUCAATT against Pcdhgc5	inactive: 1.67
GGCUACCAAGCUCCUCUAUTT against Zfyve21	inactive: -1.49
GGAUGUUCCAUAUGUGCUGTT against Arhgap31	inactive: -0.011
GGCUGUCCACCGUAUGUAATT against Gpn1	inactive: -0.736
GGUCCUCAUCGAAUUACACTT against Trip10	inactive: -1.14
GGCUGACAUAACAUUAAAATT against Bves	inactive: -1.06
GGUCAAGAGUGCCCUAAAATT against Olfr398	inactive: -1.63
GGAUCUUUUGAGAAAGAACTT against Adgrb3	inactive: -0.399
GGGAGCAACCGGACAAUAUTT against Spa17	inactive: -1.86
GGAAAACACGUUCACUAUATT against Elp2	inactive: 0.021

Sequence	z-score
CCACAAAGGAAUUCAUGAGTT against Dhx16	inactive: -1.41
GGAUAUCUUCUCCUAUUUUTT against Ncbp3	inactive: 0.387
GCCACACGACAUGUGAUUCTT against C2cd4c	inactive: -0.0403
GGGUGAACUCGGAUUGCCUTT against Col23a1	inactive: 1.23
CGAUCUGUGAUUGAACCACTT against Pak1	inactive: -0.0456
GGAAAUAACAAGUUUUCCATT against Exog	inactive: 1.49
GGGAAAGCAUCGUAGACUCTT against Eid2	inactive: 0.0738
GGACCACUCCAAGAGUUCUTT against Ncapd3	active: 2.88
GGUUGGAUUCUCUUUGUCATT against Rbm8a	inactive: -1.95
GGUGACUUGUAAAGAUUUUTT against Dstn	inactive: 0.234
UCCUUACAUACGAUGUGAATT against Rab20	inactive: -0.872
GCUUCGAAACGGCCACAAGTT against Grb7	inactive: 1.07
GCUACUGGUCAAUCUGUUCTT against Ifna2	inactive: 0.876
GGAUGUCUUCAGCUUCAGGTT against Olfr992	inactive: 1.48
GCGGAAGCGUGAAUCCAAATT against Tigd3	active: 3.13
GGAGGAUCGGAAAAAAGCUTT against Ccdc9	inactive: -0.938
GGACUUUGACUUAUCAAAUTT against Kctd11	inactive: 1.31
GCCUAUGUUAAAAUACUGGTT against Scgb2b27	inactive: 0.538
GGAGAAAAAAGCUAUGACUTT against Zfp120	inactive: -0.0683
CGCAGGAACACCGAUGUAUTT against Agpat5	inactive: -1.15
GGAACAGAAACUGAAGGAUTT against Clip2	inactive: 1.17
GGUGAAGAGAGGUUUUUUUTT against St8sia2	inactive: 1.12

Sequence	z-score
GCUUUGUCACUACCACUGUTT against Olfr1329	inactive: 0.256
CGACUUUAAUCAGAGGGCATT against Slc16a3	inactive: 0.834
GCCAGGAUACUAAGUGUUUTT against Jpt2	inactive: 1.05
GGACAUUUGAUGACAGUGCTT against Thbd	inactive: -1.43
CGCGUCUGUGAAGACCUGUTT against P2rx4	inactive: -1.24
GGUGGUUCUGGUGUACAGUTT against Nxf1	inactive: -1.98
GCAAGCAUGCUCAUAAAGATT against Cast	inactive: -0.142
CGCAAACAAACCUUAACAGTT against Maneal	active: 2.21
GGAAACCUGAUAGAAGAGCTT against Dctn6	inactive: 0.967
GCUGAGAAGUGGUAUCUAATT against Lztfl1	inactive: -0.33
GGAUCUAUUCUCUCUGAUGTT against Prune2	inactive: 1.03
GGAGUGUAAGGAAUUUAGCTT against Eid3	inactive: 0.171
GGCCAGCAGAUGAAUACGATT against Shd	inactive: -1.2
GGCGAAAUGGUAAACCGAGTT against Adgrg2	inactive: 0.0183
GCCUGUAUAGAUGCUAUUCTT against Setd1a	inactive: -0.894
GGAACUAUGGAGAUGGGACTT against Tcf4	inactive: -0.695
GCUCAAGUGCUCGAAUGACTT against Vps11	inactive: -1.48
CCACCUAAGCCUACAAUGATT against Papolb	inactive: 0.262
ACAAAGUCGCCUUCUUCCGTT against Adgrf3	inactive: -0.706
AGAACGGAACCAUAGGGAATT against Cmc2	inactive: -0.897
GGGUCUCUUCAGUUUUUUATT against Srsf9	inactive: 0.311
GCGGUAUGGAAAAAGAGAUTT against Pyy	inactive: -0.525

Sequence	z-score
GGCUCAGAAGAAAAUGGAUTT against Kcnk4	inactive: 0.166
GGUGACUACUACAGGAAACTT against Hps1	active: 2.3
GGUUGGUCACCUAAUCCAGTT against Aldh2	inactive: 0.523
GGGAUACCAGCUGAAUUACTT against Inhbe	inactive: -0.612
GGAUGUGACUAGAAUCAUCTT against Shpk	inactive: 0.625
GGUCAGUUGAGAUGUUUUUTT against Pag1	inactive: 0.346
GGUCCAUUCGGUACAAAAATT against Cfap20dc	inactive: -1.23
GGGAAGGAAUAUGAUGGGCTT against Sik3	inactive: -0.704
GGAACAGGCACAGAAAAUUTT against Abca12	inactive: -1.68
GGGAUACGGUCCACACUAUTT against Arl1	inactive: -0.674
GGUCAUCGGGAGGUUUGAATT against Nfkbil1	inactive: -0.0141
GGGAGAGACCCAAAAAGGGTT against Sh3pxd2a	inactive: -0.672
GGUAUUGGUUAAGUAUCACTT against Sumo3	inactive: -0.377
GGAAUUUUCUGAGAUUCGGTT against Il20	inactive: -0.655
GCCACUUCACAGCAAGCUATT against Cdk2ap1	active: 3.27
GGAGCAAGAUGAAGAAGAGTT against Ticam2	active: -2.26
GCCCUUGUUACAGAUUCUCTT against Vmn1r179	inactive: -0.614
CGAGCAUCUGUUAUGUACATT against Olfr19	inactive: 1.31
GGAGAUGCACAAAAGAAUATT against Slc35d1	inactive: 0.697
GGAUCAUUUCAAAACACACTT against Kcnh1	inactive: -0.0204
GGGUAUUUUACCACUACUUTT against Psg23	inactive: 0.32
CCCGAGAACAUCUUGUACGTT against Rps6ka4	active: 2.69

Sequence	z-score
GGAUUUAUAGACAAGUUCUTT against Gapt	inactive: 1.26
GGAACUGAGGUUUUUAAAGTT against Tnks	inactive: -0.621
GCUAACAGCAUCCUUUUUGTT against Vmn1r50	inactive: -0.843
GGAGUAGAUCCAAAUGCACTT against Klhl4	inactive: -0.436
GGCCGAGUAGCUGAUGAAATT against Dhx35	inactive: -1.52
CGACAUGCCUAUCUACAUGTT against Epha2	inactive: -0.127
GCACCAGUGAUAUUUUUACTT against Tas2r110	inactive: -1.26
GCGGACUACUAUGCUAAAGTT against Tgfb1	inactive: 1.08
GGAAGAUGUGAAAUUGCUUTT against Dars2	active: 2.23
CCUAUAUCAACAUUAGAGATT against Atp13a4	inactive: -0.207
GGUGGAUCCAGACCAAGUCTT against Hdhd5	inactive: 0.186
CCACAGAAAUAUUUCUGUGTT against Olfr292	inactive: -0.769
CCCACAUGUUGUCUGUAUUTT against Opn3	inactive: -1.17
GGAUGAUGAUGAGGAAGGGTT against Cd2bp2	inactive: 0.263
GGAAAUCAGAAGAAGAACATT against Hars	active: 2.67
GCUACCACAUUUAAACCUUTT against Mrps14	inactive: 0.378
GGGAAGAAGAAAAAGAUGATT against Peak1	inactive: -0.506
GGGACUAACCUACUUAAUGTT against Metrnl	inactive: 1.22
GAACUCUCUCUUCAUCUGGTT against Cd300ld3	active: 2.18
GGUGAUGUUUGUCAACAACTT against Slc14a2	inactive: 0.373

Another view of some results above:
Sequence,z-score
GCUAACAGCAUCCUUUUUGTT against Vmn1r50,inactive: -0.843
GGAGUAGAUCCAAAUGCACTT against Klhl4,inactive: -0.436
GGCCGAGUAGCUGAUGAAATT against Dhx35,inactive: -1.52
CGACAUGCCUAUCUACAUGTT against Epha2,inactive: -0.127
GCACCAGUGAUAUUUUUACTT against Tas2r110,inactive: -1.26
GCGGACUACUAUGCUAAAGTT against Tgfb1,inactive: 1.08

From PubChem BioAssay AID1508600 (Functional Genomics Laboratory (NCATS/FGL), 2020)
